Laboratory results from PubChem BioAssay AID504467 (National Center for Advancing Translational Sciences (NCATS), 2011).
Out of some 330,000 compounds screened, about 7,700 (2.3%) were called active. The shares of active, inactive and inconclusive entries below differ from those in the screen. Calls come from the whole dose curve; as a rule, active = well fitted inhibition curve with a large enough effect; inconclusive = small, poorly fitted or top-dose-only effect, or effect the other way; inactive = flat fitted curve, though single readings scatter. A potency beside an inconclusive call is a rough fit, not a confirmed value.

Assay: qHTS screen for small molecules that inhibit ELG1-dependent DNA repair in human embryonic kidney (HEK293T) cells expressing luciferase-tagged ELG1; note: nearly all actives have a fitted effect of over 55% in size
Conditions: HEK293T ELG1-luciferase reporter, luminescence, 16 h, DNA damage induced by 5-fluorouridine; series mostly up to 46.1 µM
In short: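 Overnight (16 hr) co-exposure of 2,000 cells/well to 5-fluorouridine and compound at 37 °C preceded detection. Luciferase was quantified via ONE-Glo luminescence; loss of signal denotes inhibition.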
Potency is the fitted concentration of half-maximal effect.

Row | SMILES | Potency
1 | CN1C(=O)CSc2ccc(NC(=O)N3CCC(N4CCCCC4)CC3)cc21 | inconclusive: 18.4 µM [activator, single point]
2 | N#Cc1ccc(OCC(=O)NC2CCCCCC2)cc1 | inconclusive: 23.1 µM [activator, partial curve, poor fit]
3 | COc1ccc(NC(=O)CN2CCN(CC(=O)Nc3cc(OC)cc(OC)c3)CC2)cc1 | inconclusive: 20.6 µM [inhibitor, single point]
4 | COc1ccccc1NC(=O)c1sc2nc(N3CCOCC3)c3c(c2c1N)CCCC3 | inactive
5 | O=C(NC1(Cc2ccccc2)CCN(CCc2cccs2)C1=O)c1ccccc1 (stereo unspecified) | inconclusive: 23.1 µM [inhibitor, single point]
6 | CCOC(=O)Cc1nc(-c2ccc(Cl)cc2)n[nH]1 | inconclusive: 23.1 µM [activator, partial curve]
7 | CCc1nnc(NC(=O)c2cc(Cl)ccn2)s1 | inconclusive: 14.6 µM [activator, partial curve]
8 | CC(C)(C)[C@H]1C=C(C(=O)NCc2nc3ccccc3[nH]2)O[C@@H](OCc2ccc(CO)cc2)C1 | inconclusive: 32.6 µM [inhibitor, partial curve, poor fit]
9 | O=C1c2ccccc2NC(c2ccccc2O)N1c1ccc(F)cc1 (stereo unspecified) | inconclusive: 18.3 µM [activator, partial curve]
10 | NS(=O)(=O)c1ccc(CCNC(=O)CSc2ccc3ccccc3c2)cc1 | inconclusive: 29.1 µM [inhibitor, single point]
11 | COc1ccc(CN(C)Cc2ccccc2)c(OC)c1OC | inactive
12 | O=C(Cc1sc(-c2ccccc2)nc1-c1ccccc1)Nc1ccc(Cl)cc1 | inconclusive: 18.4 µM [inhibitor, single point]
13 | O=C(NNC(=O)c1ccc2c(=O)n3c(nc2c1)CCC3)c1ccc(F)cc1 | inactive
14 | CCOc1ccccc1NC(=O)CCc1nnc2ccc(N3CCC4(CC3)OCCO4)nn12 | inconclusive: 9.2 µM [inhibitor, partial curve, poor fit]
15 | C=CC[n+]1ccc(/C=C2\C=Cc3cc(C)ccc3N2CC)c2ccccc21 | active: 1.3 µM
16 | COc1ccc(NC(=O)COC(=O)c2ccc(S(=O)(=O)N(C)c3ccccc3OC)cc2)c(OC)c1 | inconclusive: 1.16 µM [inhibitor, partial curve, poor fit]
17 | O=C(NCc1csc(-c2ccccc2)n1)c1cc(F)cc2c1OCOC2 | inconclusive: 11.6 µM [activator, partial curve]
18 | CC(C)(C)C1CCC2(CC1)NC(=S)N(c1ccccc1)N2 (stereo unspecified) | inconclusive: 23.1 µM [activator, single point]
19 | COCCn1c(SCC(=O)c2c(N)n(C3CC3)c(=O)[nH]c2=O)nnc1-c1cccc(C)c1 | inactive
20 | c1ccc(-c2cccc(-c3ccccc3)n2)cc1 | inconclusive: 20.6 µM [activator, partial curve, poor fit]
21 | OC1(C(F)(F)F)CC(O)(C(F)(F)F)n2nc(-c3ccccc3)cc2N1 (stereo unspecified) | inconclusive: 29.1 µM [activator, partial curve, poor fit]
22 | O=C1CCCN1CCCn1cnc2c([nH]c3ccc(F)cc32)c1=O | inconclusive: 6.51 µM [activator, single point]

Row | SMILES | Potency
23 | CCOC(=O)C(=CNc1cc(C)ccc1C)C(=O)OCC | inconclusive: 23.1 µM [inhibitor, single point]
24 | Cc1ccc(O)c(C(=O)c2cnc3c(c2)COc2ccccc2-3)c1 | active: 16.4 µM
25 | COc1ccc(C(=O)NC(=O)COC(=O)c2ccc(C)o2)cc1 | inactive
26 | COc1ccc(Nc2ncnc3c2c(C)c(C)n3CCCN(C)C)cc1 | inconclusive: 16.4 µM [activator, partial curve]
27 | Fc1ccc(CCNC(=S)Nc2ccc(F)c(Cl)c2)cc1 | inconclusive: 23.1 µM [inhibitor, single point]
28 | Cn1c(N)c(C(=O)COC(=O)COc2ccc(Cl)cc2)c(=O)n(C)c1=O | inconclusive: 4.11 µM [inhibitor, single point]
29 | CCc1ccccc1NC(=O)c1cc(-c2cccs2)on1 | inconclusive: 16.4 µM [activator, partial curve]
30 | COc1ccc2c(c1)CCc1c(C(=O)N3CCCC3)noc1-2 | inconclusive: 13 µM [activator, partial curve, poor fit]
31 | CC1(C)c2ccccc2-c2nc3ccccc3cc2C1O (stereo unspecified) | inconclusive: 29.1 µM [activator, partial curve, poor fit]
32 | CC(Nc1cc(N2CCN(S(C)(=O)=O)CC2)ccc1[N+](=O)[O-])c1ccccc1 (stereo unspecified) | inactive
33 | O=C(CCCn1c(SCC(=O)c2ccccc2)nc2ccccc2c1=O)NCC1CCCO1 (stereo unspecified) | inconclusive: 18.4 µM [inhibitor, single point]
34 | C=CSc1sc(Cl)c(N2CCOCC2)c1[N+](=O)[O-] | inactive
35 | COc1ccc(NC(=S)Nc2nc(CC(=O)Nc3ccccc3OC)cs2)cc1 | inconclusive: 25.9 µM [inhibitor, single point]
36 | CC(C)CC(=O)Nc1ccc(-c2nnn(CC(=O)NCc3ccco3)n2)cc1 | inconclusive: 29.1 µM [activator, single point]
37 | COc1cccc(CNC(=O)N2CCN(S(=O)(=O)c3ccc(Cl)cc3)CC2)c1 | inactive
38 | c1ccc(-c2cnc(-c3ccccc3)nc2)cc1 | inconclusive: 1.16 µM [activator, full curve]
39 | Cc1ccc(C2CCN(C(=O)Nc3ccc(F)cc3)C2)cc1 (stereo unspecified) | inconclusive: 13 µM [activator, partial curve]
40 | Cc1cccc(C=Nc2ccc3c(c2)oc2ccccc23)c1O | inconclusive: 10.3 µM [activator, partial curve]
41 | CC(=O)CCCCn1c(=O)c2c(ncn2C)n(C)c1=O | inconclusive: 0.164 µM [inhibitor, full curve, poor fit]
42 | O=C(NCc1ccccc1)/C(=C/c1ccc(OC(F)F)cc1)c1ccccc1 | inconclusive: 18.4 µM [inhibitor, single point]
43 | CC(=O)NCCc1ccc(S(=O)(=O)Nc2ccc(C)c(S(=O)(=O)N3CCOCC3)c2)cc1 | inactive
44 | Cc1ccc2c(c1)cc(CN(Cc1ccco1)S(=O)(=O)c1ccccc1)c1nnnn12 | inconclusive: 29.1 µM [inhibitor, single point]

Row | SMILES | Potency
45 | COc1ccc(N2CCN(C(C)C(=O)N(C)Cc3ccccc3)CC2)cc1 (stereo unspecified) | inactive
46 | C=CCNC(=O)/C(C#N)=C/c1ccc(OS(=O)(=O)c2ccc(C)cc2)c(OC)c1 | inconclusive: 29.1 µM [inhibitor, single point]
47 | COc1ccc(NC(=O)c2cc3ccccc3o2)cc1 | inconclusive: 5.8 µM [activator, partial curve]
48 | COc1ccc(N2C(=O)CCC(C(=O)N3CCN(c4ccccn4)CC3)C2c2ccc(F)cc2)cc1 (stereo unspecified) | inactive
49 | CCOc1ccc(C(=O)OC(C)C(=O)N2CCN(Cc3ccccc3)CC2)cc1 (stereo unspecified) | inconclusive: 16.4 µM [inhibitor, partial curve, poor fit]
50 | CC(C)CNS(=O)(=O)c1ccc(S(=O)(=O)N2CCC(N3CCCCC3)CC2)cc1 | inconclusive: 29.1 µM [activator, single point]
51 | O=C(NCCc1nc(-c2ccccc2)cs1)c1ccc(Br)cc1 | inconclusive: 32.6 µM [inhibitor, single point]
52 | CCN(CC)S(=O)(=O)c1ccc2oc(SCC(=O)Nc3cc(C)on3)nc2c1 | active: 10.3 µM
53 | COc1ccc(C2(CNC(=O)c3ccc(OC)c([N+](=O)[O-])c3)CCCCC2)cc1OC | active: 14.6 µM
54 | COc1ccccc1N(Cc1ccccc1)S(=O)(=O)c1cccc(C(=O)Nc2cccc(C)n2)c1 | inconclusive: 23.1 µM [inhibitor, single point]
55 | CCO[C@@H]1OC(C(=O)NCc2ccccc2)=C[C@H](c2cn(C(C)=O)c3ccccc23)[C@H]1CCCO | inactive
56 | CCCn1c(=O)n(C)c(=O)c2c(SCC(=O)NCc3ccco3)nc(C3CC3)nc21 | inconclusive: 32.6 µM [inhibitor, partial curve, poor fit]
57 | COc1cccc(CN2CCN(Cc3cccc4c3OCO4)CC2CCO)c1 (stereo unspecified) | inconclusive: 1.46 µM [activator, partial curve]
58 | CN(C)S(=O)(=O)N1CCCC(C(=O)c2ccc(-c3ccccc3)c(F)c2)C1 (stereo unspecified) | inconclusive: 20.6 µM [inhibitor, partial curve]
59 | S=C(Nc1ccc(Cl)cc1)Nc1ccc2c(c1)OCCO2 | inconclusive: 18.3 µM [activator, partial curve]
60 | CCCc1cc(C(=O)NCc2ccc(OC)cc2)no1 | inconclusive: 20.6 µM [activator, partial curve]
61 | CCCCc1c(C)nc2ccc(OC)cc2c1SCCC(=O)O | inactive
62 | Cc1cc(O)c(NC(=O)c2cc([N+](=O)[O-])ccc2Cl)cc1C | inconclusive: 29.1 µM [inhibitor, single point]
63 | COc1cccc(C2=NC(C)(C)NC(c3ccccc3O)C2)c1 (stereo unspecified) | inconclusive: 25.9 µM [activator, single point]
64 | COCCN(C(=O)CCC(=O)Nc1cc(C)on1)C(C(=O)NC(C)(C)C)c1cccc(OC)c1OC (stereo unspecified) | inactive
65 | CCOC(=O)N1CCN(C(=O)c2oc3ccc(S(=O)(=O)N4CC(C)CC(C)C4)cc3c2C)CC1 (stereo unspecified) | inconclusive: 16.4 µM [inhibitor, single point]
66 | COc1ccc(CCN2C(=O)c3[nH]nc(-c4ccccc4O)c3C2c2ccccc2)cc1OC (stereo unspecified) | active: 13 µM

Part of the list above in order of molecular weight, rising:
Row | SMILES | Potency
47 | COc1ccc(NC(=O)c2cc3ccccc3o2)cc1 | inconclusive: 5.8 µM [activator, partial curve]
7 | CCc1nnc(NC(=O)c2cc(Cl)ccn2)s1 | inconclusive: 14.6 µM [activator, partial curve]
2 | N#Cc1ccc(OCC(=O)NC2CCCCCC2)cc1 | inconclusive: 23.1 µM [activator, partial curve, poor fit]
18 | CC(C)(C)C1CCC2(CC1)NC(=S)N(c1ccccc1)N2 (stereo unspecified) | inconclusive: 23.1 µM [activator, single point]
24 | Cc1ccc(O)c(C(=O)c2cnc3c(c2)COc2ccccc2-3)c1 | active: 16.4 µM
45 | COc1ccc(N2CCN(C(C)C(=O)N(C)Cc3ccccc3)CC2)cc1 (stereo unspecified) | inactive
42 | O=C(NCc1ccccc1)/C(=C/c1ccc(OC(F)F)cc1)c1ccccc1 | inconclusive: 18.4 µM [inhibitor, single point]
49 | CCOc1ccc(C(=O)OC(C)C(=O)N2CCN(Cc3ccccc3)CC2)cc1 (stereo unspecified) | inconclusive: 16.4 µM [inhibitor, partial curve, poor fit]
5 | O=C(NC1(Cc2ccccc2)CCN(CCc2cccs2)C1=O)c1ccccc1 (stereo unspecified) | inconclusive: 23.1 µM [inhibitor, single point]
37 | COc1cccc(CNC(=O)N2CCN(S(=O)(=O)c3ccc(Cl)cc3)CC2)c1 | inactive
56 | CCCn1c(=O)n(C)c(=O)c2c(SCC(=O)NCc3ccco3)nc(C3CC3)nc21 | inconclusive: 32.6 µM [inhibitor, partial curve, poor fit]
50 | CC(C)CNS(=O)(=O)c1ccc(S(=O)(=O)N2CCC(N3CCCCC3)CC2)cc1 | inconclusive: 29.1 µM [activator, single point]
